Assay [1] has as its target T1, Yah1-GST fusion protein (S. cerevisiae) (UniProt Q12184).
T1 sequence: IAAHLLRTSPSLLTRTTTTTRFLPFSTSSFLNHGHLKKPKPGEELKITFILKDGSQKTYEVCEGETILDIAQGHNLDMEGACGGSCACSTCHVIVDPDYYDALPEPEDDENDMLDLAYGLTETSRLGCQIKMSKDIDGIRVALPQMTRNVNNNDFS
Put plainly: BLI; anaerobic chamber; Yah1^GST (WT or DD/KK) chemically reduced with 5 mM sodium dithionite (30 min, then desalted) and immobilised on anti-GST sensors; analytes NIA (10 μM), NIA with Isu1Sc (10 μM each) or Isu1Sc (10 μM); buffer BLI; both purified. In general terms: Biolayer interferometry detects binding as a change in optical thickness at a sensor tip.

Protein sequences, listed by entry. Tags and fused reporters are not part of them. Lines headed by an entry give the natural chain unless they say otherwise; changes in a name come on top.
UniProt P25374: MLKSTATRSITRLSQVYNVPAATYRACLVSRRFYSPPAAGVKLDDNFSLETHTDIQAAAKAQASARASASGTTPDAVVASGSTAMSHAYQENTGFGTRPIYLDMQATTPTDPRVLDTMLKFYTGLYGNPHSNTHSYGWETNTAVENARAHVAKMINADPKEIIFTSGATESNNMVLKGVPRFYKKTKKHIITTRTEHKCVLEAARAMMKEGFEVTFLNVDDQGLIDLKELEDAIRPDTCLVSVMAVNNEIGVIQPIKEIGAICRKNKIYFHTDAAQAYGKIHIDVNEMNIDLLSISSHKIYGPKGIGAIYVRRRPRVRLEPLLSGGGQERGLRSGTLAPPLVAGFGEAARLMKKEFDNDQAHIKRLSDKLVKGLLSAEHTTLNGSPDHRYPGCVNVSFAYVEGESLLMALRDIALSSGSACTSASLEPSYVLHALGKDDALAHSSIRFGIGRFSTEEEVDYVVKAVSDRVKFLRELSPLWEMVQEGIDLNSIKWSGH
UniProt Q6Q560: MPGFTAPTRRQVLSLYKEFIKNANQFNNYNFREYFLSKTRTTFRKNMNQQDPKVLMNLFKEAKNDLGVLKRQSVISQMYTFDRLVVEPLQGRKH
UniProt P0A6A8: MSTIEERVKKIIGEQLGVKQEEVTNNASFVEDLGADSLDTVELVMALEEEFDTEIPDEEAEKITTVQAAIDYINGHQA

Assay [2] addresses T1, Yah1-GST fusion protein (S. cerevisiae). Briefly: condition: only aerobic conditions (Yah1 cluster oxidised); Isu1Sc 7.5 μM; pull-down; GST-tagged Yah1 bait (2.5 μM) incubated with NIA (5 μM or increasing) and/or Isu1 (7.5 μM) in buffer PD (40 mM Hepes–KOH pH 7.5, 5% glycerol, 100 mM KCl, 1 mM DTT, 10 mM MgCl2) 15 min at 25 °C; glutathione agarose 1 h at 4 °C; SDS-PAGE, InstantBlue, densitometry corrected for binding to GST; aerobic (Yah1 cluster oxidised); both purified.

The target in assay [3] is T2, NIA complex (Nfs1–Isd11–ACPEc) (S. cerevisiae | E. coli (endogenous in the expression host)) (UniProt P25374+Q6Q560+P0A6A8). Briefly: pull-down; GST-tagged Yah1 bait (2.5 μM) incubated with NIA (5 μM or increasing) and/or Isu1 (7.5 μM) in buffer PD (40 mM Hepes–KOH pH 7.5, 5% glycerol, 100 mM KCl, 1 mM DTT, 10 mM MgCl2) 15 min at 25 °C; glutathione agarose 1 h at 4 °C; SDS-PAGE, InstantBlue, densitometry corrected for binding to GST; aerobic (Yah1 cluster oxidised); both purified.

In assay [4] the target is T1, Yah1-GST fusion protein (S. cerevisiae). Briefly: condition: only aerobic conditions (Yah1 cluster oxidised); Isu1Sc 10 μM; BLI; Yah1^GST immobilised on anti-GST biosensors; analytes NIA (10 μM) alone, Isu1 (10 μM) alone or both; buffer BLI (40 mM HEPES–KOH pH 7.5, 5% glycerol, 100 mM KCl, 1 mM DTT, 10 mM MgCl2, 0.05% Triton X-100); room temperature; aerobic (Yah1 cluster oxidised); fits with the 2:1 heterogenous ligand model; both purified.

Assay [5] has as its target T2, NIA complex (Nfs1–Isd11–ACPEc) (S. cerevisiae | E. coli (endogenous in the expression host)). Briefly: BLI; His-tagged Nfs1 of the NIA complex immobilised on a Ni–nitrilotriacetic acid-coated sensor; untagged Yah1 in solution; both purified.

These are yes or no findings as the source states them, for the method shown. Some results given as binding are weak or reduced against the parent protein; the word gives no strength. For some assays here: Where a sequence is shown, tags or fusion partners need not be part of it.

B1: Isu1 of S. cerevisiae (protein, UniProt Q03020 28-165)
chain: SSITKRLYHPKVIEHYTHPRNVGSLDKKLPNVGTGLVGAPACGDVMRLQIKVNDSTGVIEDVKFKTFGCGSAIASSSYMTELVQGMTLDDAAKIKNTEIAKELSLPPVKLHCSMLAEDAIKAAIKDYKSKRNTPTMLS
Take B1: the binding entry in assay [1] is “binds”; in assay [2], “no binding”; in assay [3], “binds”; in assay [4], “no binding”.

B2: Yah1 (untagged, holo) (protein, UniProt Q12184 17-172)
chain: IAAHLLRTSPSLLTRTTTTTRFLPFSTSSFLNHGHLKKPKPGEELKITFILKDGSQKTYEVCEGETILDIAQGHNLDMEGACGGSCACSTCHVIVDPDYYDALPEPEDDENDMLDLAYGLTETSRLGCQIKMSKDIDGIRVALPQMTRNVNNNDFS
Take B2: the binding entry in assay [5] is reported as “binds”.
